These are yes or no findings as the source states them, for the method shown. Binding seen in cells or lysates may run through a third protein. Some binding calls cover weakened binding; strength is not graded here.
Legend:
p53 [1] = biological target: p53 (UniProt P04637); test: summary of co-IP and co-localization of endogenous proteins in LNCaP cells
p53 [2] = biological target: p53 (UniProt P04637); test: co-IP with anti-p53 antibody of mixed E. coli extracts, Western blot for sGCα1
p53 [3] = biological target: p53 (UniProt P04637); test: co-immunoprecipitation, gel filtration and immunocytochemistry of endogenous proteins in LNCaP cells (figure legend)
p53 [4] = biological target: p53 (UniProt P04637); test: co-IP of mixed E. coli (BL21) extracts, Western blot (figure legend)
p53 [5] = biological target: p53 (UniProt P04637); test: co-IP of mixed E. coli extracts
p53 [6] = biological target: p53 (UniProt P04637); test: co-IP with anti-p53 antibody from LNCaP cytoplasmic extract, Western blot

Measured: binding

B1: soluble guanylyl cyclase alpha 1 (sGCα1) (enzyme, UniProt Q02108 1-690, looked up)
chain: MFCTKLKDLKITGECPFSLLAPGQVPNESSEEAAGSSESCKATVPICQDIPEKNIQESLPQRKTSRSRVYLHTLAESICKLIFPEFERLNVALQRTLAKHKIKESRKSLEREDFEKTIAEQAVAAGVPVEVIKESLGEEVFKICYEEDENILGVVGGTLKDFLNSFSTLLKQSSHCQEAGKRGRLEDASILCLDKEDDFLHVYYFFPKRTTSLILPGIIKAAAHVLYETEVEVSLMPPCFHNDCSEFVNQPYLLYSVHMKSTKPSLSPSKPQSSLVIPTSLFCKTFPFHFMFDKDMTILQFGNGIRRLMNRRDFQGKPNFEEYFEILTPKINQTFSGIMTMLNMQFVVRVRRWDNSVKKSSRVMDLKGQMIYIVESSAILFLGSPCVDRLEDFTGRGLYLSDIPIHNALRDVVLIGEQARAQDGLKKRLGKLKATLEQAHQALEEEKKKTVDLLCSIFPCEVAQQLWQGQVVQAKKFSNVTMLFSDIVGFTAICSQCSPLQVITMLNALYTRFDQQCGELDVYKVETIGDAYCVAGGLHKESDTHAVQIALMALKMMELSDEVMSPHGEPIKMRIGLHSGSVFAGVVGVKMPRYCLFGNNVTLANKFESCSVPRKINVSPTTYRLLKDCPGFVFTPRSREELPPNFPSEIPGICHFLDAYQQGTNSKPCFQKKDVEDGNANFLGKASGID
binds: all assays above
